According to publication PMC6264466, “HPLC Determination of Antilipoxygenase Activity of a Water Infusion of Ligustrum vulgare L. Leaves and Some of Its Constituents” (Molecules, 2011):

Test system: T1, 8-LOX
T1 construct: gene Alox15b; native, male rat lung cytosol; ammonium sulphate, Sephadex G-150 and Phenyl-Sepharose CL-4B; LOX activities not separated
Test: HPLC of 8-HETE formed from arachidonic acid
Assay type: biochemical, Rattus norvegicus
Settings: Tris-HCl pH 7.4, ambient temperature, 30 min, partially purified LOX mixture

| Structure (SMILES) | % inhibition at higher concentration (inhibitor at higher concentration (series 232.36-692.37 ug/mL)) | % inhibition (inhibitor 33.75-66.42 ug/mL, exact concentration for this value not stated) |
| --- | --- | --- |
| C[C@@H]1O[C@@H](O[C@@H]2[C@@H](O)[C@H](OCCc3ccc(O)c(O)c3)O[C@H](CO[C@@H]3O[C@H](CO)[C@@H](O)[C@H](O)[C@H]3O)[C@H]2OC(=O)/C=C/c2ccc(O)c(O)c2)[C@H](O)[C@H](O)[C@H]1O [echinacoside] | 28.7% | – |
| C/C=C1/[C@H](O[C@@H]2O[C@H](CO)[C@@H](O)[C@H](O)[C@H]2O)OC=C(C(=O)OC)[C@H]1CC(=O)OCCc1ccc(O)c(O)c1 [oleuropein] | – | ~ 40% |
